# The list shows a part of the results. Many values rest on one well or one pass, so single values are uncertain.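 Imaging used 1,536-well plates; nuclei positive for cleaved PARP by antibody were divided by total DNA-stained nuclei to yield the apoptosis fraction. Doses for screening kept most cells viable, and cell lines differ markedly in resting and induced cleaved-PARP levels.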
# Experiments:
# Experiment in all cases: cleaved PARP positive nuclei fraction relative to DMSO control; melanoma cells; higher = more apoptosis
# Details in all cases: library dose: low library concentration; 72 h
# CBRC034 = system: CBRC034 (line from a melanoma biopsy)
# COLO792 = system: COLO792
# COLO800 = system: COLO800
# COLO829 = system: COLO829
# G361 = system: G361
# IPC-298 = system: IPC-298
# IST-MEL1 = system: IST-MEL1
# LB2518-MEL = system: LB2518-MEL
# LOXIMVI = system: LOXIMVI
Compound,cleaved PARP positive nuclei fraction (CBRC034) [%],cleaved PARP positive nuclei fraction (COLO792) [%],cleaved PARP positive nuclei fraction (COLO800) [%],cleaved PARP positive nuclei fraction (COLO829) [%],cleaved PARP positive nuclei fraction (G361) [%],cleaved PARP positive nuclei fraction (IPC-298) [%],cleaved PARP positive nuclei fraction (IST-MEL1) [%],cleaved PARP positive nuclei fraction (LB2518-MEL) [%],cleaved PARP positive nuclei fraction (LOXIMVI) [%]
"O=C(O)c1ccc(-c2c[nH]c3ncc(-c4ccccc4)cc23)cc1C1CCCC1 + O=C1NC(=O)/C(=C/c2ccc(-c3ccc(F)cc3O)o2)S1 [AS252424] (first compound 0.16 µM, partner dose 1 µM)",86.7,92.4,238,78.1,180,89.7,27.7,85.5,140
"N#Cc1c(O)c2c(-c3ccc(-c4ccccc4O)cc3)csc2[nH]c1=O + CCN(CC)CCCCNc1ncc2cc(-c3cc(OC)cc(OC)c3)c(NC(=O)NC(C)(C)C)nc2n1 [PD173074] (first compound 2 µM, partner dose 0.1 µM)",75.7,161,159,61.7,165,78.3,60.2,90,64.8
"CN(NC(=O)CC(=O)NN(C)C(=S)c1ccccc1)C(=S)c1ccccc1 + O=c1cc(-c2cccc3c2Sc2ccccc2S3)oc(N2CCOCC2)c1 [KU55933] (first compound 0.006 µM, partner dose 1 µM)",86.5,126,290,128,182,341,344,79.9,810
"COC(=O)c1sccc1S(=O)(=O)Nc1ccc(Nc2ccccc2)cc1OC + COc1ccc(COc2ccc(Cc3cnc(N)nc3N)cc2OC)cc1 [GW2580] (first compound 1 µM, partner dose 1 µM)",87.8,140,189,103,129,167,41.5,79.5,59.9
"Oc1cc(-c2nc(-c3ccccc3)[nH]c2-c2ccncc2)ccc1Cl + c1cc(-c2cnn3cc(-c4ccc(OCCN5CCCCC5)cc4)cnc23)ccn1 [Dorsomorphin] (first compound 0.2 µM, partner dose 0.4 µM)",110,43.6,114,118,106,259,58.9,96.6,51.5
"O=C(O)c1ccc(-c2c[nH]c3ncc(-c4ccccc4)cc23)cc1C1CCCC1 + Cn1cc(/C=C2\C(=O)Nc3cccnc32)c2ccccc21 [GW441756] (first compound 0.16 µM, partner dose 0.4 µM)",65.5,166,147,60.7,132,88,141,75.5,215
"Cn1cc(/C=C2\C(=O)Nc3cccnc32)c2ccccc21 + O=c1cc(-c2cccc3c2Sc2ccccc2S3)oc(N2CCOCC2)c1 [KU55933] (first compound 0.4 µM, partner dose 1 µM)",124,74.4,212,130,170,174,44.5,219,30.7
"O=S(=O)(c1ccccc1)N(CC(F)(F)F)c1ccc(C(O)(C(F)(F)F)C(F)(F)F)cc1 + O=C(O)C(=O)Nc1sc2c(c1C(=O)O)CCNC2 [TCS401] (first compound 1.4 µM, partner dose 1.66667 µM)",90.4,213,93.6,63.6,52.1,181,45,184,939
"Cn1cc(/C=C2\C(=O)Nc3cccnc32)c2ccccc21 + CC(C)CCN1c2nc(Nc3cc(F)c(O)c(F)c3)ncc2N(C)C(=O)C1C [BID1870] (first compound 0.4 µM, partner dose 0.2 µM)",47.5,98.8,160,79.4,58.9,166,51.6,95.1,26.5
"CCN(CC)CCCCNc1ncc2cc(-c3cc(OC)cc(OC)c3)c(NC(=O)NC(C)(C)C)nc2n1 + Cn1cc(/C=C2\C(=O)Nc3cccnc32)c2ccccc21 [GW441756] (first compound 0.1 µM, partner dose 0.4 µM)",79.1,54.7,147,132,94.2,55.6,52.6,174,48.2
"O=S(=O)(c1ccccc1)N(CC(F)(F)F)c1ccc(C(O)(C(F)(F)F)C(F)(F)F)cc1 + CCCCCCCCCCCC1=C(O)C(=O)C=C(O)C1=O [Embelin] (first compound 1.4 µM, partner dose 1.2 µM)",78.5,106,131,99.3,145,72,188,81.2,95.1
"COc1ccc2c(c1)CCC1C2CCC2(C)C(NCCCCCCN3C(=O)C=CC3=O)CCC12 (stereo not drawn) + c1cc(-c2cnn3cc(-c4ccc(OCCN5CCCCC5)cc4)cnc23)ccn1 [Dorsomorphin] (first compound 0.4 µM, partner dose 0.4 µM)",324,140,223,138,124,88.2,133,38,85.7

# Complete entries from above. Order of values: cleaved PARP positive nuclei fraction (CBRC034) [%]	cleaved PARP positive nuclei fraction (COLO792) [%]	cleaved PARP positive nuclei fraction (COLO800) [%]	cleaved PARP positive nuclei fraction (COLO829) [%]	cleaved PARP positive nuclei fraction (G361) [%]	cleaved PARP positive nuclei fraction (IPC-298) [%]	cleaved PARP positive nuclei fraction (IST-MEL1) [%]	cleaved PARP positive nuclei fraction (LB2518-MEL) [%]	cleaved PARP positive nuclei fraction (LOXIMVI) [%]
# CCN(CC)CCCCNc1ncc2cc(-c3cc(OC)cc(OC)c3)c(NC(=O)NC(C)(C)C)nc2n1 + Cn1cc(/C=C2\C(=O)Nc3cccnc32)c2ccccc21 [GW441756] (first compound 0.1 µM, partner dose 0.4 µM) in the list: 79.1	54.7	147	132	94.2	55.6	52.6	174	48.2
# O=S(=O)(c1ccccc1)N(CC(F)(F)F)c1ccc(C(O)(C(F)(F)F)C(F)(F)F)cc1 + O=C(O)C(=O)Nc1sc2c(c1C(=O)O)CCNC2 [TCS401] (first compound 1.4 µM, partner dose 1.66667 µM) in the list: 90.4	213	93.6	63.6	52.1	181	45	184	939

# Reference: the supplement of paper PMC4604168 (melanoma cell lines)
